From patent US20110143963A1
Residue numbers refer to the chain shown, from its start. No constants are given. Whether binding was seen depends on the method and setting. A result given as binding can be weak or reduced; the word gives no strength. For part of these data: In cells and extracts the contact can be indirect.

B1: circularly permutated PDZ domain (designed binder)
chain: PELGFSISGGVGGRGNPFRPDDDGIFVTRVQPEGPASKLLQPGDKIIQANGYSFINIEHGQAVSLLKTFQNTVELIIVREVGNGAKQEIRVRVEKD
B2: enhanced PDZ-a (designed binder)
chain: MKHHHHHHHHHHSSDYKDDDDKGENLYFQGSPELGFSISGGVGGRGNPFRPDDDGIFVTRVQPEGPASKLLQPGDKIIQANGYSFINIEHGQAVSLLKTFQNTVELIIVREVGNGAKQEIRVRVEKDGGSGGVSSVPTNLEVVAATPTSLLISWDASYYGVSYYRITYGETGGNSPVQEFTVPYSSSTATISGLKPGVDYTITVYAYSDYYGSHHYSPISINYRT
B3: enhanced PDZ-b (designed binder)
chain: MKHHHHHHHHHHSSDYKDDDDKGENLYFQGSPELGFSISGGVGGRGNPFRPDDDGIFVTRVQPEGPASKLLQPGDKIIQANGYSFINIEHGQAVSLLKTFQNTVELIIVREVGNGAKQEIRVRVEKDGGSGGVSSVPTNLEVVAATPTSLLISWDAYYDSHVSYYRITYGETGGNSPVQEFTVPGSKSTATISGLKPGVDYTITVYAHYNYHYYSSPISINYRT
B4: ePDZ-b1 (designed binder)
chain: B3 chain with Y158R, D159E, S160L, H161P

What was measured:
[1] = target: SUMO-ARVCF fusion protein (yeast); test: equilibrium SPR, response against the concentration of the target peptide fused to SUMO
[2] = target: SUMO-ARVCF fusion protein (yeast); test: pull-down with biotinylated ePDZ and streptavidin magnetic beads
[3] = target: SUMO-ARVCF fusion protein (yeast); test: Western blotting of E. coli lysate with 5 nanograms of SUMO-ARVCF
[4] = target: SUMO-ARVCF fusion protein (yeast); test: immunoprecipitation (pull-down), FIG. E2B

Binder	binding [1]	binding [2]	binding [3]	binding [4]
B1	binds	–	–	–
B2	–	binds	binds	–
B3	–	binds	binds	–
B4	–	–	–	binds
